According to US11077035B2, “Hair treatment compositions and methods” (SYTHEON LIMITED, priority 2017, dated 2021):

Test: Color fading of dyed hair tresses under UV exposure
Details: for total color change ΔE: added to shampoo and conditioner, medium brown-colored hair, after 15 days of UV exposure

Compound: COc1ccc(CC(C(C)=O)C(C)=O)cc1OC [Compound 1D, 3-(3,4-dimethoxybenzyl)-2,4-pentanedione]
- total color change ΔE: 7.28

Compound: COc1cc(CC(C(C)=O)C(C)=O)cc(OC)c1OC [Compound 1F, 3-(3,4,5-trimethoxybenzyl)-2,4-pentanedione]
- panelists who chose the treated tresses as having retained the most color (Compound 1F shampoo, medium brown hair): 95.1%
- total color change ΔE: 7.28
